Experimental findings from the supplement of paper PMC12873370 are described below.

Values joined by “and” are separate entries in the source; they are usually repeats but may differ in a detail not shown here. Equal values may be shown once. This is one part of the list. Single values are uncertain, as repeats are few or missing.

For experiment [1], the system named is MEPP (mouse ovarian epithelium Trp53/Pten KO). The experiment is described as follows: cell viability relative to untreated (fraction); higher = less growth inhibition. The note with it: 5 µM; 3 days.
Experiment [2] relates to PREPP (mouse prostate epithelium Trp53/Pten KO). The experiment is described as above. The note with it: 5 µM; 3 days.

Take `CC(=O)OC/C=C(C)/C=C/C=C(C)/C=C/C1=C(C)CCCC1(C)C`: the cell viability came out at 1.23 in experiment [1] and 0.849 in experiment [2].

In the case of `COC(=O)c1ccccc1O`, the cell viability in experiment [1] was determined as 1.49; in experiment [2] it was 0.941.

For the compound `CCCCCCCCC(=O)O`, the cell viability in experiment [1] is 1.08; in experiment [2], 0.84.

As for `C[C@@H](CCC(=O)O)CC(=O)O`, the cell viability in experiment [1] was 0.974; in experiment [2] it was 0.94.

For the compound `CC1(C)[C@H](C(=O)O)N2C(=O)C[C@H]2S1(=O)=O`, the cell viability came to 0.964 in experiment [1] and 0.896 in experiment [2].

In the case of `Nc1ncnc2c1ncn2[C@@H]1O[C@H](COP(=O)(O)OP(=O)(O)OP(=O)(O)O)[C@@H](O)[C@H]1O`, the cell viability in experiment [1] is 0.91 and 1.11; in experiment [2], 1.15 and 1.01.

`CC[C@@]1(O)C(=O)OCc2c1cc1n(c2=O)Cc2cc3cc(O)ccc3nc2-1`: the cell viability was 0.942 and 0.551 in experiment [1]; 0.625 and 0.712 in experiment [2].

Turning to `COCC1=C(C(=O)OC(C)OC(=O)OC(C)C)N2C(=O)[C@@H](NC(=O)/C(=N\OC)c3csc(N)n3)[C@H]2SC1` (stereo not given in full), the cell viability in experiment [1] stood at 0.844; in experiment [2] it was 0.974.

For `O=C(O)c1cc(O)cc(O)c1`, the cell viability in experiment [1] turned out to be 0.903; in experiment [2], 0.9.

As to `CCc1cc(C(N)=S)ccn1`, the cell viability came out at 1.08 in experiment [1] and 0.869 in experiment [2].

For `OC[C@H]1O[C@@](CO)(O[C@H]2O[C@H](CO)[C@@H](O)[C@H](O)[C@H]2O)[C@@H](O)[C@@H]1O`, the cell viability in experiment [1] came to 1.19; in experiment [2], 0.884.

For `CC1=C(C(=O)O)N2C(=O)[C@@H](NC(=O)[C@H](N)c3ccc(O)cc3)[C@H]2SC1`, the cell viability is 0.918 in experiment [1] and 0.895 in experiment [2].

Take `COc1ccccc1OCC(O)CO` (stereo not given): the figures for the cell viability in experiment [1] and in experiment [2] were 1.1 and 0.957, respectively.

With `CC(C)C[C@H](NC(=O)[C@H]1O[C@@H]1C(=O)O)C(=O)NCCCCN=C(N)N`, the cell viability in experiment [1] stood at 1.12; in experiment [2], 0.92.

With `Nc1nc(=O)[nH]cc1F`, the cell viability was found to be 1.05 in experiment [1] and 0.882 in experiment [2].

As to `COc1cc([C@@H]2[C@H]3CO[C@@]4(O)C(=O)[C@@H]2C=C([C@H]2Oc5cc(O)cc(O)c5C(=O)[C@@H]2O)[C@@H]34)ccc1O`, the cell viability in experiment [1] came to 1.28; in experiment [2], 0.904.

Regarding `OC[C@H]1OC(O)[C@H](O)[C@@H](O)[C@@H]1O` (stereo not given in full), the cell viability in experiment [1] is 1.37; in experiment [2], 0.852.

As to `O=Cc1ccc(O)c(O)c1`, the values for the cell viability in experiment [1] and in experiment [2] were 0.858 and 0.821, respectively.

On to `NOCC(=O)O`, for which the values for the cell viability in experiment [1] and in experiment [2] were 1.03 and 1.05, respectively.

In the case of `OC[C@H]1O[C@@H](Oc2cc(O)cc(/C=C/c3ccc(O[C@@H]4O[C@H](CO)[C@@H](O)[C@H](O)[C@H]4O)cc3O)c2)[C@H](O)[C@@H](O)[C@@H]1O`, the cell viability was 1 in experiment [1] and 0.866 in experiment [2].

With `CCCCCCCCN=c1ccn(CCCCCCCCCCn2ccc(=NCCCCCCCC)cc2)cc1`, the cell viability in experiment [1] came out at 0.768; in experiment [2], 0.523.

Turning to `CN(Cc1ccc(C(C)(C)C)cc1)Cc1cccc2ccccc12`, the results for the cell viability in experiment [1] and in experiment [2] were 1.1 and 1.07, respectively.

`CC1C(=O)OC2C(O)C34C5CC(C(C)(C)C)C36C(OC(=O)C6O)OC4(C(=O)O5)C12O` (stereo not given): the cell viability in experiment [1] is 0.814; in experiment [2], 1.23.

On to `C=C(C)[C@@H]1CCC2=CC(=O)C[C@@H](C)[C@]2(C)C1`, for which the results for the cell viability in experiment [1] and in experiment [2] were 1.03 and 0.893, respectively.

For the compound `OCc1ccccc1O[C@@H]1O[C@H](CO)[C@@H](O)[C@H](O)[C@H]1O`, the cell viability turned out to be 0.862 in experiment [1] and 1.17 in experiment [2].

In the case of `COc1ccc(-c2oc3cc(OC)c(OC)c(O)c3c(=O)c2OC)cc1O`, the cell viability in experiment [1] amounted to 1.04; in experiment [2], 0.679.

Take `O=c1cc(-c2ccccc2)oc2ccccc12`: the results for the cell viability in experiment [1] and in experiment [2] were 1.18 and 0.974, respectively.

Regarding `OC[C@@H](O)[C@H](O)[C@@H](O)CO`, the cell viability in experiment [1] was 1.09; in experiment [2], 0.957.

In the case of `COc1cc(-c2coc3cc4c(c(OC)c3c2=O)OCO4)cc(OC)c1OC`, the cell viability in experiment [1] was found to be 1.48; in experiment [2] it was 0.993.

Regarding `Cc1cc(SCc2sc(-c3ccc(C(F)(F)F)cc3)nc2C)ccc1OCC(=O)O`, the values for the cell viability in experiment [1] and in experiment [2] were 1.05 and 0.961, respectively.

In the case of `Cc1cn([C@@H]2C[C@@H](O)[C@H](CO)O2)c(=O)[nH]c1=O`, the cell viability in experiment [1] came out at 1.07; in experiment [2], 1.02.

Turning to `CCCCOC(=O)c1ccc(N)cc1`, the cell viability came to 0.856 in experiment [1] and 0.962 in experiment [2].

With `O=c1c(O)c(-c2cc(O)c(O)c(O)c2)oc2cc(O)cc(O)c12`, the values for the cell viability in experiment [1] and in experiment [2] were 0.809 and 1.37, respectively.

Turning to `O=c1c(O)c(-c2ccccc2)oc2cc(O)cc(O)c12`, the cell viability in experiment [1] and in experiment [2] was 0.979 in each case.

For the compound `CC(=O)c1cnccn1`, the figures for the cell viability in experiment [1] and in experiment [2] were 0.912 and 1.08, respectively.

For the compound `C=C[C@]1(C)C[C@@H](OC(=O)CO)[C@]2(C)[C@H](C)CC[C@]3(CCC(=O)[C@@H]32)[C@@H](C)[C@@H]1O`, the cell viability came to 0.763 in experiment [1] and 0.977 in experiment [2].

As for `CN(C)c1cc(NC(=O)CNC(C)(C)C)c(O)c2c1C[C@H]1C[C@H]3[C@H](N(C)C)C(O)=C(C(N)=O)C(=O)[C@@]3(O)C(O)=C1C2=O`, the cell viability in experiment [1] was determined as 0.987; in experiment [2], 0.88.

For the compound `N[C@@H]1CONC1=O`, the cell viability in experiment [1] came to 1.31; in experiment [2], 0.913.

Turning to `CC(C)[C@@H]1CC[C@@H](C)C[C@H]1O`, the cell viability in experiment [1] was 1.88; in experiment [2], 0.921.

Regarding `O=C1O[C@H]([C@@H](O)CO)C(O)=C1O`, the cell viability in experiment [1] amounted to 1.14; in experiment [2] it was 0.945.

Regarding `CC[C@]1(O)C[C@H]2CN(CCc3c([nH]c4ccccc34)[C@@](C(=O)OC)(c3cc4c(cc3OC)N(C=O)[C@H]3[C@@](O)(C(=O)OC)[C@H](OC(C)=O)[C@]5(CC)C=CCN6CC[C@]43[C@@H]65)C2)C1`, the figures for the cell viability in experiment [1] and in experiment [2] were 0.581 and 0.599, respectively.

Turning to `CN(C)N(C)C(=O)[C@@]1(Cc2ccccc2)CCCN(C(=O)[C@@H](Cc2c[nH]c3ccccc23)NC(=O)C(C)(C)N)C1`, the figures for the cell viability in experiment [1] and in experiment [2] were 1.26 and 0.855, respectively.

With `CC(C)=C1C/C=C(\C)CC/C=C(\C)CC1=O`, the cell viability in experiment [1] was 1.09; in experiment [2] it was 0.824.

For the compound `CCC1=C[C@@H]2CN(C1)Cc1c([nH]c3ccccc13)[C@@](C(=O)OC)(c1cc3c(cc1OC)N(C)[C@H]1[C@@](O)(C(=O)OC)[C@H](OC(C)=O)[C@]4(CC)C=CCN5CC[C@]31[C@@H]54)C2`, the cell viability in experiment [1] was 0.449 and 0.602; in experiment [2], 0.756 and 0.589.

Turning to `Oc1ccccc1O`, the cell viability in experiment [1] worked out at 0.991; in experiment [2] it was 0.956.
